A short description of the series: general procedure: solution-phase peptide synthesis; EDC/HOBt. To be noted: late stage modification step.

In the case of Try-D-Ala-Gly-(2R).gradient.^E Phe-Leu, the step yield stood at 70.4%.
